{
  "source": "patent US20180305424A1",
  "about": "“Methods of Inducibly Targeting Chromatin Effectors and Compositions for Use in the Same” (The Board of Trustees of the Leland Stanford Junior …, priority 2015, published 2018)",
  "key": {"[1]": {"test_system": "CiA Oct4 MEFs", "test": "Oct4 reporter (GFP-positive cells) and Pou5f1 gene expression after rapamycin addition", "assay_type": "cell-based, mouse", "details": "rapamycin addition (BAF complex recruitment)"}, "[2]": {"test_system": "BAF complex recruitment to the modified Oct4 (Pou5f1) locus in CiA MEF cells", "test": "Recruitment assay (ON): rapamycin-induced BAF complex recruitment to the CiA Oct4 locus, ChIP-qPCR", "assay_type": "cell-based, mouse", "description": "CiA mouse embryonic fibroblasts (MEFs) containing a modified Oct4 promoter (with 12×ZFHD1 and 6×GAL4 sites upstream of the promoter) were generated, cultured and maintained as previously described (Hathaway et al., “Dynamics and memory of heterochromatin in living cells,” Cell (2012) 149:1447-1460). Briefly, lentiviral delivery constructs bearing an EF1-alpha promoter and either puromycin or blasticidin resistance were generated to contain the constructs described here (FIG. 1a). To generate recruitable forms of BAF complexes, individual subunits (SS18, BRG, BAF47, BAF57) were N-terminally fused to Frb-V5. We generated: Frb-V5-huSS18, Frb-V5-huBAF57, and Frb-V5-huBAF47, Frb-V5-Brg1, and a control Frb-V5-STOP to be paired with co-infected ZFHD1-FKPB.\nBriefly, adherent CiA MEF cells were treated with 3 nM (final) rapamycin (sirolimus; Sellekchem #S1039) (ON experiments) or 3 nM rapamycin followed by 30 nM FK1012 (OFF/washout experiments) for prescribed times (2.5 minutes-24 hours). For acute time points, cells were harvested rapidly by washing media out once with PBS, scraping cells off plates with a cell scraper, resuspending in CiA fix buffer, and formaldehyde fixing for subsequent ChIP analyses.\nBriefly, for rapid time course assays, adherent CiA MEF cells were washed once in PBS, scraped off plates into fix buffer (50 mM HEPES, 1 mM EDTA, 0.5 mM EGTA, and 100 mM NaCl), resuspended, and immediately formaldehyde fixed. After cross-linking, cells (7-10×10̂6) were washed and sonicated for 13.5 minutes using a Covaris E220 Sonicator (Covaris, Inc., Woburn, Mass.). Chromatin input was reverse crosslinked and evaluated for shearing efficiency and 100-150 μg of chromatin stock was used per immunoprecipitation reaction. Antibodies (3 μg/ChIP) were incubated with chromatin stock and Protein G Dynal beads overnight at 4 degrees. Following washing, immunoprecipitated material was eluted and subjected to reverse crosslinking. Finally, DNA precipitation was performed using phenol:chloroform extraction and ChIP DNA was reconstituted in 50 μl TE for qPCR reactions.\nCiA knock-in locus-specific primers were generated with plus (+) and minus (−) direction distances calculated from the middle of the ZFHD1 recruitment domain as well as […] distances calculated from the Oct4 transcription start site (TSS). Briefly, enrichment (bound over input) averages and standard deviations were calculated over n=5 repeat experiments for each primer set. Student's two samples t-test was performed to determine statistical significance."}},
  "note": "At least one structure is not confirmed: it was looked up by name or label, or the drawing left a doubt.",
  "data": [
    {"smiles": "CO[C@H]1C[C@@H]2CC[C@@H](C)[C@@](O)(O2)C(=O)C(=O)N2CCCC[C@H]2C(=O)O[C@H]([C@H](C)C[C@@H]2CC[C@@H](O)[C@H](OC)C2)CC(=O)[C@H](C)/C=C(\\C)[C@@H](O)[C@@H](OC)C(=O)[C@H](C)C[C@H](C)/C=C/C=C/C=C/1C", "note": "[rapamycin]", "values": [
      {"measurement": "Percentage of GFP+ cells", "setting": "[1]", "value": "does not result in increased percentage of GFP+ cells"},
      {"measurement": "Pou5f1 gene expression", "setting": "[1]", "value": "nor Pou5f1 gene expression"},
      {"measurement": "Occupancy of PRC2 complexes and H3K27me3", "setting": "[2]; 60′ post rapamycin treatment, ChIP", "value": "reduced"},
      {"measurement": "Time within which V5, Brg and BAF155 were each effectively recruited", "setting": "[2]; ChIP with antibodies to V5, Brg and BAF155 after rapamycin addition", "value": "2 to 5", "unit": "min"},
      {"measurement": "Lag time of recruitment of the BAF complex to the Oct4 locus", "setting": "[2]; after addition of rapamycin, time course 0 to 60 minutes, printed CI 95% t=2.2<t<4.8 min", "value": 2, "unit": "min"},
      {"measurement": "Time at which BAF complex occupancy reached maximum / saturation", "setting": "[2]; rapamycin recruitment, b153 prints range 3.35 hr<t<7.50 hr, CI=95%, n=8 trials", "value": 5, "unit": "h"}
    ]}
  ]
}
